Measured values taken from PubChem BioAssay AID1671190 (National Center for Advancing Translational Sciences (NCATS), 2021).
About 6,100 (1.1%) of roughly 580,000 compounds were called active. Inconclusive results, whose numbers are uncertain, are shown with a selection of clear calls. The call rests on the fitted dose curve; in most records, active means well fitted inhibition curve with a large enough effect; inconclusive means small, poorly fitted or top-dose-only effect, or another doubt; inactive means no such curve, though single readings can be large or run the other way. Where the call is inconclusive, the potency comes from a doubtful curve fit.

Protein sequences, listed by entry. Tags and fused reporters are not part of them. Lines headed by an entry give the natural chain unless they say otherwise; changes in a name come on top.
UniProt P18054: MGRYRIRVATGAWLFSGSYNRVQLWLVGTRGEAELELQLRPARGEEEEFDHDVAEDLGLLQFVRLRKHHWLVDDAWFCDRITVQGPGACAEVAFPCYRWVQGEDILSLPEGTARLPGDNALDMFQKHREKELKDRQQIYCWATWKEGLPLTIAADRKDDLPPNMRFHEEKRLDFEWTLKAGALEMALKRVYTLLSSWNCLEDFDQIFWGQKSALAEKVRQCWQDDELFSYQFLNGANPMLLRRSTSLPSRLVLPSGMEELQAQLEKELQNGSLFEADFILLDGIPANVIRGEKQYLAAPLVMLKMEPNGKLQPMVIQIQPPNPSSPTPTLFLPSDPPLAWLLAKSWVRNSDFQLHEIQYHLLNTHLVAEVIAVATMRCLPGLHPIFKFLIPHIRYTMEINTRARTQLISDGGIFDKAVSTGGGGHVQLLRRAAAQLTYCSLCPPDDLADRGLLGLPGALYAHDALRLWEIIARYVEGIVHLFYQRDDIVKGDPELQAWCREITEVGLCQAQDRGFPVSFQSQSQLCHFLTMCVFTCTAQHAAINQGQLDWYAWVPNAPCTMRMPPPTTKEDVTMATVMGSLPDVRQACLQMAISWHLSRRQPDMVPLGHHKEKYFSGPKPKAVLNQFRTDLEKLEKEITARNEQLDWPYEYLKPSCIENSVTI

biological target: Polyunsaturated fatty acid lipoxygenase ALOX12 (Homo sapiens) (UniProt P18054); test: Primary qHTS assay for inhibitors of human arachidonate 12S-lipoxygenase (ALOX12): Round 2; settings: purified 12hLO, xylenol orange hydroperoxide absorbance; series mostly up to 108 µM
How it was run: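 Purified human 12hLO (150 nM final) in 25 mM Hepes, 0.01% Triton X-100, pH 7.0 was preincubated 15 min at room temperature with compound. Then 40 uM arachidonic acid was added, 30 min. Hydroperoxide was read by Fe-XO absorbance ratio 573/405 nm.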
Potency means the concentration at half of the fitted maximal effect.

Compound | Potency
O=C(Nc1cccs1)Nc1nnc([C@@H]2C[C@H](O)[C@@H](CO)O2)s1 | inconclusive: 35.5 µM [inhibitor, partial curve, poor fit]
CCc1cc2c(=O)n(CCCOC)c(SCC(=O)Nc3oc(C)c4c(C)n[nH]c(=O)c34)nc2s1 | inconclusive: 5.62 µM [inhibitor, full curve]
Cc1ccc(OCC(=O)Nc2ccccc2C(=O)OCc2cc(=O)n3c(C)csc3n2)cc1 | inactive
CC(C)OC(=O)c1c(NC(=O)c2cc3nc(-c4ccccc4)cc(C(F)(F)F)n3n2)sc2c1CCCC2 | inconclusive: 112 µM [inhibitor, partial curve, poor fit]
Cc1cc(N2CCN(C(=O)c3[nH]c(C(F)(F)F)nc3-c3ccccc3)CC2)c2ccccc2n1 | inconclusive: 5.01 µM [inhibitor, full curve, poor fit]
Cc1c2cccn2cc[n+]1C | inactive
CCc1ccc(C(O)(CC)C(CN2CCOCC2)c2ccccc2)cc1 (stereo unspecified) | inconclusive: 56.2 µM [inhibitor, partial curve, poor fit]
COc1ccc(OCC(=O)Nc2cccc(C(=O)Nc3ccccc3C(=O)O)c2)cc1 | inconclusive: 100 µM [inhibitor, partial curve, poor fit]
CCCOc1ccc(-c2nc(C#N)c(N3CCCC3)o2)cc1 | inconclusive: 35.5 µM [inhibitor, partial curve, poor fit]
COc1cc(NC(=O)CCc2c[nH]c3ccccc23)cc(OC)c1OC | inconclusive: 44.7 µM [inhibitor, partial curve, poor fit]
Cn1cc(S(=O)(=O)N2CCCC(C(=O)Nc3ccn(Cc4ccc(Cl)cc4)n3)C2)cn1 (stereo unspecified) | inactive
CCc1nc2c(OCc3ccc(C#N)cc3)cccn2c1N(C)C(=O)c1cccs1 | inconclusive: 35.5 µM [inhibitor, partial curve, poor fit]
O=[N+]([O-])c1cccc(-c2noc([C@@H]3Cc4nc[nH]c4CN3)n2)c1 | inactive
Cn1c(N)c(C(=O)CSc2nnc(Cc3cccs3)n2C2CC2)c(=O)n(C)c1=O | inactive
O=C(O)c1cc(Cl)cc(Cl)c1I | inconclusive: 50.1 µM [inhibitor, partial curve, poor fit]
Cc1cc(C)cc(NS(=O)(=O)c2ccc3[nH]cc(C(=O)NCc4ccco4)c(=O)c3c2)c1 | inconclusive: 39.8 µM [inhibitor, full curve, poor fit]
CC(C)CC(=O)N1CCN(Cc2ccccc2Cl)CC1 | inconclusive: 0.708 µM [inhibitor, partial curve, poor fit]
CC(=O)c1ccc(NC(=O)CN2C(=O)CCc3cc(S(=O)(=O)N4CCC(C)CC4)ccc32)cc1 | inconclusive: 56.2 µM [inhibitor, partial curve, poor fit]
COC(=O)c1sc(NC(=O)COc2c(C)cc(C)cc2C)nc1C | inactive
Nc1ccc2oc3ccccc3c2c1 | inconclusive: 44.7 µM [inhibitor, partial curve, poor fit]
CCCCN(Cc1ccccc1)c1ccc(NS(=O)(=O)c2ccc(CC)cc2)cc1C(=O)O | inconclusive: 0.355 µM [inhibitor, full curve, poor fit]

Compound | Potency
O=C1CCCC2=C1C(c1ccc(C(F)(F)F)cc1)C1=C(N2)c2ccccc2C1=O (stereo unspecified) | inconclusive: 31.6 µM [inhibitor, partial curve]
COc1cc(C)c(/C=C(\C#N)C(=O)Nc2cccc(Cl)c2C)cc1C(C)C | inconclusive: 39.8 µM [inhibitor, single point]
Cc1ccc2c(=O)cc(C(=O)Nc3ccc(F)cc3)oc2c1 | inconclusive: 31.6 µM [inhibitor, single point]
O=C(c1ccc(Cl)o1)N1CCCc2cc(C(F)(F)F)ccc21 | inconclusive: 126 µM [inhibitor, single point]
Cn1c(=O)c2c(ncn2CC(=O)Nc2ccc3c(c2)OC2(CCCCC2)O3)n(C)c1=O | inconclusive: 35.5 µM [inhibitor, partial curve, poor fit]
Cc1cccc(C(=O)c2ccccc2C(=O)O)c1 | inactive
CCCn1ccc2c(OCC(=O)Nc3ccc(C(F)(F)F)cc3)cccc2c1=O | inconclusive: 50.1 µM [inhibitor, full curve, poor fit]
CC(C)C1C(=O)N(Cc2cn(Cc3ccco3)nn2)CCS(=O)(=O)N1Cc1ccc(-c2ccc(F)cc2)cc1 (stereo unspecified) | inconclusive: 50.1 µM [inhibitor, partial curve, poor fit]
CCc1ccc2oc(C(=O)N(Cc3ccc(C)cc3)C3CCS(=O)(=O)C3)cc(=O)c2c1 (stereo unspecified) | inconclusive: 35.5 µM [inhibitor, partial curve, poor fit]
COc1ccc(Cn2c(-n3nc(C)cc3C)nc3c2c(=O)n(CC(N)=O)c(=O)n3C)cc1 | inactive
Cc1cc(C)n(CC(=O)N2CCC(n3c(C(C)C)nc4cccnc43)CC2)n1 | inactive
O=C(Nc1cccc(-n2cnnn2)c1)c1cc(Cl)ccc1Cl | inactive
Cc1ccc(C(C)NC(=S)NCc2ccc(F)cc2)c(C)c1 (stereo unspecified) | inconclusive: 50.1 µM [inhibitor, partial curve, poor fit]
O=c1c(-c2ccccc2)nc2cnc(N3CCNCC3)nc2n1Cc1ccc(F)cc1 | inconclusive: 28.2 µM [inhibitor, single point]
Cc1cc(NC(=O)CSc2nc(N)c(NC(=O)c3ccco3)c(=O)[nH]2)no1 | inactive
CCOc1ccccc1C(=O)Nc1cc2c(cc1N1CCCCC1)n(C)c(=O)n2C | inactive
O=C(/C=C/c1ccc(Cl)cc1Cl)c1ccccc1OC(F)F | inactive
CC(CCc1ccc(O)cc1)N1CCOc2c(O)cc(-c3nc4ccccc4s3)cc2C1 (stereo unspecified) | inconclusive: 126 µM [inhibitor, single point]
O=C(O)c1cccc(COc2ccc(Cl)cc2Cl)c1 | inconclusive: 44.7 µM [inhibitor, partial curve, poor fit]
C[C@H](CO)N1C[C@H](C)[C@@H](CN(C)Cc2ccccc2)Oc2c(NS(=O)(=O)c3ccc(F)cc3)cccc2C1=O | inactive

Taken from above:
Entry for O=C(Nc1cccc(-n2cnnn2)c1)c1cc(Cl)ccc1Cl under Potency: inactive
Entry for Cc1cccc(C(=O)c2ccccc2C(=O)O)c1 under Potency: inactive
